Laboratory results as given in ChEMBL document CHEMBL1136434, “5-aryl-pyrazolo[3,4-b]pyridazines: potent inhibitors of glycogen synthase kinase-3 (GSK-3)” (Bioorg Med Chem Lett, 2003).

Protein sequences, listed by entry. Tags and fused reporters are not part of them. Lines headed by an entry give the natural chain unless they say otherwise; changes in a name come on top.
UniProt P49840: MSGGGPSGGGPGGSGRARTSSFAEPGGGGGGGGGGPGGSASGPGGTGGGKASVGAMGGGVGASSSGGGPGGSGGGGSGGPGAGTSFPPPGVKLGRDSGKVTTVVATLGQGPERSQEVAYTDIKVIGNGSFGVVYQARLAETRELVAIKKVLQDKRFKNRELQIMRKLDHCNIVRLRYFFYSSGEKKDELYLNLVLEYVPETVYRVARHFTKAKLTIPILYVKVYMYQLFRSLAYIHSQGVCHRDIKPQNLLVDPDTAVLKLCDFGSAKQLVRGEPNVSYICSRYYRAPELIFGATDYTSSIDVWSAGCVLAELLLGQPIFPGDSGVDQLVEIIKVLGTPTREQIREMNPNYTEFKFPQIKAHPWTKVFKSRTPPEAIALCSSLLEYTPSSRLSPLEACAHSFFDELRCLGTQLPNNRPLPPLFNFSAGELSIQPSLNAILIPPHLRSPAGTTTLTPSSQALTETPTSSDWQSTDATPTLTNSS

Target: Glycogen synthase kinase-3 alpha (Homo sapiens, UniProt P49840)

SMILES: CCCC(=O)Nc1n[nH]c2nnc(-c3ccccc3)cc12
- IC50: 4 nM
